Measurements reported in PubChem BioAssay AID1159584 (Peter MacCallum Cancer Centre, 2016).
Shown is an unselected part of about 18,000 reagents. Further read-outs or replicates are left out here. Not given: the amount of reagent, the time to read-out.

Assay: 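Genes whose loss is lethal only together with E-cadherin loss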 (primary screen)
System: human MCF10A breast epithelial cells, parental and CDH1-null
Reagents: siRNA against human genes
Measured: 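ATP luminescence (CellTiter-Glo) viability per line relative to mean mock wells over all plates, and the ratio of CDH1-null to parental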
Reading the numbers: CDH1-null / parental viability ratio: higher = CDH1-null cells survive relatively better than parental

| CDH1-null / parental viability ratio | gene symbol |
| --- | --- |
| 0.85 | ARHGAP45 |
| 1.21 | PTCH2 |
| 1.17 | GSAP |
| 1.04 | FNBP1 |
| 0.96 | TRIM21 |
| 1.11 | SURF6 |
| 1.02 | ARX |
| 1.02 | SIK1 |
| 0.83 | CSAD |
| 1.11 | SCN9A |
| 1.17 | P2RY2 |
| 1.1 | CCN5 |
| 0.79 | SLC22A2 |
| 1.23 | ESR2 |
| 0.98 | NFE2L1 |
| 1.27 | MRPS28 |
| 0.83 | KHK |
| 1.05 | TMED5 |
| 1.42 | APPL1 |
| 0.84 | GPLD1 |
| 1.24 | KIR3DL1 |
| 1.07 | FH |
| 0.93 | MAGEB1 |
| 1.39 | KARS1 |
| 0.73 | OSTF1 |
| 1.24 | NKX6-3 |
| 0.94 | S100A7A |
| 0.77 | RCAN3 |
| 0.9 | ARHGAP20 |
| 1.43 | MRPS21 |
| 1 | ZFR2 |
| 1.09 | RASGEF1A |
| 0.87 | SPP1 |
| 0.88 | EED |
| 1.04 | IFT54 |
| 1.04 | TMEM200A |
| 1.15 | KRTAP4-7 |
| 1.1 | NOMO2 |
| 1.07 | SERPINE1 |
| 0.91 | UFC1 |
| 1.05 | IL2RG |
| 0.71 | MRPL2 |
| 1.32 | CWH43 |
| 1.1 | VPS33A |
| 1.07 | ZSCAN10 |
| 0.95 | GPR17 |
